PubChem BioAssay AID504744 – Drosophila RNAi Screening Center, 2011
Test: 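Uncover factors, including feedback loops, that control dAkt activation in fly cells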 (primary screen). System: Drosophila Kc167 cells. Knock-down reagent: long dsRNA against Drosophila genes, 250 ng dsRNA per well of a 384-well plate. Timing: 3 days of knock-down, then overnight serum-free starvation before stimulation. Conditions: bovine insulin at 387 nM for 10 minutes after 12 h without serum. Measurement: 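Per-well phospho-dAkt level from an in-cell fluorescent antibody stain, divided by a DNA-dye signal; log2 residuals turned into z-scores that take cell number into account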. Rule for the call: 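Hit in the insulin screen when the two-replicate mean z-score is more extreme than plus or minus 2.5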.
The deposit covers about 23,000 reagents; below is a random part of those with a known target gene and a result. Over the whole deposit, 98 (0.43%) were called active. 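Only hit calls are given; the phospho-dAkt signals, z-scores and hit direction were not deposited.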 Names joined by + are all predicted targets of the reagent.

CG12460 (retired record) [DRSC20970]: activity call = inactive
Axud1 [DRSC00270]: activity call = inactive
CG15336 [DRSC18019]: activity call = inactive
CG12912 [DRSC06227]: activity call = inactive
CG30391 [DRSC21572]: activity call = inactive
Obp19c [DRSC20528]: activity call = inactive
CG12640 [DRSC17847]: activity call = inactive
Cp19 [DRSC11121]: activity call = inactive
CG18682 (retired record) [DRSC15373]: activity call = inactive
CG18682 (retired record) [DRSC15374]: activity call = inactive
RpS28a [DRSC15064]: activity call = inactive
CG11076 [DRSC17197]: activity call = inactive
CG4619 [DRSC02764]: activity call = inactive
DopEcR [DRSC08529]: activity call = inactive
Tsen34 + Trl [DRSC10014]: activity call = inactive
CG7227 [DRSC03032]: activity call = inactive
Vha36-1 [DRSC07098]: activity call = inactive
Cdk5alpha [DRSC03290]: activity call = inactive
dila [DRSC06607]: activity call = inactive
Ns1 [DRSC15529]: activity call = inactive
CG1113 [DRSC12163]: activity call = inactive
Pfdn2 [DRSC10618]: activity call = inactive
Adk2 [DRSC09827]: activity call = inactive
Gr59c [DRSC04185]: activity call = inactive
GNBP-like3 [DRSC06385]: activity call = inactive
CG33458 [DRSC22891]: activity call = inactive
Hsp70Bb + Hsp70Ba + Hsp70Bc + 1 more [DRSC21247]: activity call = inactive
Hsp70Bb + Hsp70Ba + Hsp70Bc + 1 more [DRSC21248]: activity call = inactive
Trax [DRSC15709]: activity call = inactive
CG14763 [DRSC06497]: activity call = inactive
Arpc3A [DRSC15596]: activity call = inactive
CG12209 [DRSC06119]: activity call = inactive
CG14866 [DRSC14989]: activity call = inactive
dmpd [DRSC06092]: activity call = inactive
Tsp47F [DRSC07325]: activity call = inactive
Mpc1 [DRSC14770]: activity call = inactive
RpS10a [DRSC14161]: activity call = inactive
Hs2st [DRSC03348]: activity call = inactive
HSPBAP1 [DRSC14567]: activity call = inactive
kairos [DRSC19972]: activity call = inactive
CG12883 [DRSC14570]: activity call = inactive
CG18273 [DRSC18150]: activity call = inactive
CG18273 [DRSC18505]: activity call = inactive
HDAC6 [DRSC20252]: activity call = inactive
Pex10 [DRSC08599]: activity call = inactive
Pex10 [DRSC22021]: activity call = inactive
THG [DRSC01896]: activity call = inactive
CG9213 [DRSC20170]: activity call = inactive
CNT1 + CG13742 [DRSC06413]: activity call = inactive
CG2540 [DRSC19856]: activity call = inactive
pall [DRSC10364]: activity call = inactive
CR14499 (retired record) [DRSC06470]: activity call = inactive
fh [DRSC18430]: activity call = inactive
tant [DRSC11401]: activity call = inactive
CG10793 [DRSC17760]: activity call = inactive
sn [DRSC18834]: activity call = inactive
CSN4 [DRSC07350]: activity call = inactive
